Values of other authors in US20100234358A1, “NERAMEXANE FOR THE TREATMENT OF NYSTAGMUS” (MERZ PHARMA GMBH & CO. KGAA, priority 2007, published 2010).
Some of these results come from one statement about several compounds together.

Test system: acquired nystagmus
Details: estimate of the majority of physicians; cited from earlier work

SMILES: NCC1(CC(=O)O)CCCCC1 [gabapentin]
- average treatment effect, improvement in visual acuity: ≤ 25%
